Measured values reported in doi:10.1101/2022.01.28.478199.
These are yes or no findings as the source states them, for the method shown. For part of these data: In cells and extracts the contact can be indirect. Some entries that bind do so weakly or less than the wild type.

Chains of the proteins cited; added tags and fusions are not shown. Residues count along the entry.
UniProt P33416, 45-811: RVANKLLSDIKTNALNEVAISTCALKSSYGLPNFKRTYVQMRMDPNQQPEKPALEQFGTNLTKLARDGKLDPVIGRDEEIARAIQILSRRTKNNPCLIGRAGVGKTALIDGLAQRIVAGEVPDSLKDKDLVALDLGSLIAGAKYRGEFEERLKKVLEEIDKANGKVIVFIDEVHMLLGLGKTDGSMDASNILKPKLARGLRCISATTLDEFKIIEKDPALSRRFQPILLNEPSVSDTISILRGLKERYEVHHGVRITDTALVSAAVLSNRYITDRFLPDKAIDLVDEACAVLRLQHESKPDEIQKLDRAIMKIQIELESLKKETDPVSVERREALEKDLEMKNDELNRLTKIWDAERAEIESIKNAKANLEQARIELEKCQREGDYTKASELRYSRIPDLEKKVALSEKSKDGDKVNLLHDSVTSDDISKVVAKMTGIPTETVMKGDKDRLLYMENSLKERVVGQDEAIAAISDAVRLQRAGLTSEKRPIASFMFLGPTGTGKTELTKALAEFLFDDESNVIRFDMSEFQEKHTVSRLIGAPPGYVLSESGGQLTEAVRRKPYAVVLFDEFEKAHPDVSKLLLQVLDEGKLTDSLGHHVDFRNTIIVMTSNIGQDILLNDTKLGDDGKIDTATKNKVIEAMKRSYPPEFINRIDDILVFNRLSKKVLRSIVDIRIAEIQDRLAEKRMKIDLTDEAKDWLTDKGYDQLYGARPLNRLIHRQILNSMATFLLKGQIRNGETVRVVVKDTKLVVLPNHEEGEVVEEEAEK
UniProt P0CS90, 24-654: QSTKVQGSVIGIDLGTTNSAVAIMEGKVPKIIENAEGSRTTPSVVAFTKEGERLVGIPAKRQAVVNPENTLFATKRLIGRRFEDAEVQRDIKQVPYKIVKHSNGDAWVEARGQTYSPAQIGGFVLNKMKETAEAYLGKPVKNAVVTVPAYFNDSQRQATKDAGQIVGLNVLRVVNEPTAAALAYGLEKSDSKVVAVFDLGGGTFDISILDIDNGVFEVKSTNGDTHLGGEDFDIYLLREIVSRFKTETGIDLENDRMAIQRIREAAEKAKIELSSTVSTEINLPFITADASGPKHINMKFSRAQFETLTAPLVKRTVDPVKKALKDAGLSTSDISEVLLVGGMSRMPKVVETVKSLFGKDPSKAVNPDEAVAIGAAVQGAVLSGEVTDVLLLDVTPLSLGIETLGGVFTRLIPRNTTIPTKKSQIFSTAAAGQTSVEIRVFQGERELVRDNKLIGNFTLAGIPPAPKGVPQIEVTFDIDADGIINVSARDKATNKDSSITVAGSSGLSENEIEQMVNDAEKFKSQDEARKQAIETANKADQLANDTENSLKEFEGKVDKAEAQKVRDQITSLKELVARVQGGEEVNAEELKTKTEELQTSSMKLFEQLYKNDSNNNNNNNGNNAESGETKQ

Legend:
[1] = target: Hsp78-6xHis (wild-type Hsp78 with a C-terminal 6x polyhistidine-tag) (S. cerevisiae) (UniProt P33416); test: pull-down
[2] = target: WT Hsp78 expressed and affinity purified from E. coli (S. cerevisiae) (UniProt P33416); test: native gel or EMSA
[3] = target: WT Hsp78 expressed and affinity purified from E. coli (S. cerevisiae) (UniProt P33416); test: SEC

Row | binding [1] | binding [2] | binding [3] | Substance
1 | binds | – | – | Ssc1 (mtHsp70, main Hsp70 chaperone of the mitochondrial matrix) (from UniProt P0CS90 24-654)
2 | – | binds | binds | WT Hsp78 expressed and affinity purified from E. coli (from UniProt P33416 45-811)
